PubChem BioAssay AID1259425, University of Nebraska Medical Center – 2018
Here is a random part of about 14,000 reagents. Not all columns of the deposit are shown. The record does not give: the time to read-out.

- Assay: 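Find knockdowns that reproduce the gene expression pattern seen when KSR1 is lost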 (primary screen)
- Cells: HCT116 human colon cancer cells
- Knock-down reagent: siRNA pool against human genes, 50 nM siRNA
- Measurement: 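After 50 nM siRNA pool, branched-DNA assay measures six marker transcripts per well, minus blank, normalised to the geometric mean of two housekeeping transcripts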
- Reading the numbers: BNIP3L mRNA: higher = more BNIP3L transcript after knockdown; NDRG1 mRNA: higher = more NDRG1 transcript after knockdown

Against CAMKMT (GeneID 79823), the entry reads BNIP3L mRNA, set 1 = 0.161; NDRG1 mRNA, set 1 = 0.245. After knock-down of FBXL12 (GeneID 54850) the results were BNIP3L mRNA, set 1 = 0.134; NDRG1 mRNA, set 1 = 0.173. LTB4R (GeneID 1241) gave BNIP3L mRNA, set 1 = 0.148; NDRG1 mRNA, set 1 = 0.152. CDH15 (GeneID 1013) gave BNIP3L mRNA, set 1 = 0.108; NDRG1 mRNA, set 1 = 0.159. After knock-down of ENTPD4 (GeneID 9583), the record shows BNIP3L mRNA, set 1 = 0.0752; NDRG1 mRNA, set 1 = 0.389. For PUS3 (GeneID 83480), the entry reads BNIP3L mRNA, set 1 = 0.163; NDRG1 mRNA, set 1 = 0.159.

Knock-down of NRG3 (GeneID 10718) came out at: BNIP3L mRNA, set 1 = 0.0665; NDRG1 mRNA, set 1 = 0.0253. Depletion of SELPLG (GeneID 6404) came out at: BNIP3L mRNA, set 1 = 0.115; NDRG1 mRNA, set 1 = 0.152. After knock-down of ACTN4 (GeneID 81), the screen gave BNIP3L mRNA, set 1 = 0.167; NDRG1 mRNA, set 1 = 0.202. Knock-down of KIF17 (GeneID 57576) resulted in: BNIP3L mRNA, set 1 = 0.114; NDRG1 mRNA, set 1 = 0.138. For DCHS1 (GeneID 8642), the values are BNIP3L mRNA, set 1 = 0.121; NDRG1 mRNA, set 1 = 0.0505. SLC26A2 (GeneID 1836) scored BNIP3L mRNA, set 1 = 0.0371; NDRG1 mRNA, set 1 = 0.239.

PPP1R12A (GeneID 4659) scored BNIP3L mRNA, set 1 = 0.0421; NDRG1 mRNA, set 1 = 0.195. For NMRK2 (GeneID 27231) the deposit lists BNIP3L mRNA, set 1 = 0.178; NDRG1 mRNA, set 1 = 0.387. With knock-down of PRPSAP2 (GeneID 5636) the results were BNIP3L mRNA, set 1 = 0.118; NDRG1 mRNA, set 1 = 0.489. RPS17 (GeneID 6218) scored BNIP3L mRNA, set 1 = 0.078; NDRG1 mRNA, set 1 = 0.115. With knock-down of SRRM1 (GeneID 10250), the record shows BNIP3L mRNA, set 1 = 0.118; NDRG1 mRNA, set 1 = 0.209. For POSTN (GeneID 10631), the values are BNIP3L mRNA, set 1 = 0.0637; NDRG1 mRNA, set 1 = 0.0776.

Against ZNF287 (GeneID 57336), the entry reads BNIP3L mRNA, set 1 = 0.13; NDRG1 mRNA, set 1 = 0.19. Knock-down of CNNM3 (GeneID 26505) resulted in: BNIP3L mRNA, set 1 = 0.087; NDRG1 mRNA, set 1 = 0.049. TEDC2 (GeneID 80178) gave BNIP3L mRNA, set 1 = 0.249; NDRG1 mRNA, set 1 = 0.188. KLHL14 (GeneID 57565) scored BNIP3L mRNA, set 1 = 0.0795; NDRG1 mRNA, set 1 = 0.182. For NSG2 (GeneID 51617), the entry reads BNIP3L mRNA, set 1 = 0.0848; NDRG1 mRNA, set 1 = 0.279. Against SLC19A4P (GeneID 56918) the deposit lists BNIP3L mRNA, set 1 = 0.117; NDRG1 mRNA, set 1 = 0.213.

For TINAGL1 (GeneID 64129), the entry reads BNIP3L mRNA, set 1 = 0.179; NDRG1 mRNA, set 1 = 0.221. For RARRES2 (GeneID 5919) the deposit lists BNIP3L mRNA, set 1 = 0.0489; NDRG1 mRNA, set 1 = 0.221. For VARS1 (GeneID 7407), the values are BNIP3L mRNA, set 1 = 0.0567; NDRG1 mRNA, set 1 = 0.259. With knock-down of MCF2L2 (GeneID 23101), the screen gave BNIP3L mRNA, set 1 = 0.159; NDRG1 mRNA, set 1 = 0.24. For MT1X (GeneID 4501) the deposit lists BNIP3L mRNA, set 1 = 0.109; NDRG1 mRNA, set 1 = 0.75. With knock-down of CRIP2 (GeneID 1397), the record shows BNIP3L mRNA, set 1 = 0.315; NDRG1 mRNA, set 1 = 0.066.

Depletion of SIRT3 (GeneID 23410) resulted in: BNIP3L mRNA, set 1 = 0.204; NDRG1 mRNA, set 1 = 0.41. Depletion of ZNF382 (GeneID 84911) came out at: BNIP3L mRNA, set 1 = 0.169; NDRG1 mRNA, set 1 = 0.195. AEBP2 (GeneID 121536) gave BNIP3L mRNA, set 1 = 0.0487; NDRG1 mRNA, set 1 = 0.132. With knock-down of SCOC (GeneID 60592), the record shows BNIP3L mRNA, set 1 = 0.0733; NDRG1 mRNA, set 1 = 0.22. Knock-down of DLG5 (GeneID 9231) resulted in: BNIP3L mRNA, set 1 = 0.0921; NDRG1 mRNA, set 1 = 0.228. MRPS15 (GeneID 64960) gave BNIP3L mRNA, set 1 = 0.127; NDRG1 mRNA, set 1 = 0.23.

Laid out differently: 2 of the entries above.
Gene	BNIP3L mRNA, set 1	NDRG1 mRNA, set 1
POSTN (GeneID 10631)	0.0637	0.0776
ZNF287 (GeneID 57336)	0.13	0.19
